{"source": "PubChem BioAssay AID624297", "about": "(National Center for Advancing Translational Sciences (NCATS), 2012)", "note": "In all, about 340,000 compounds went through this assay and about 6,200 (1.8%) were called active. Inconclusive means that the source gave no clear call. Such entries were picked first, then a sample of the others. Calls come from the whole dose curve; as a rule, active = well fitted activation curve with a large enough effect; inconclusive = small, poorly fitted or top-dose-only effect; inactive = no such curve, though single readings can be large or run the other way. Where the call is inconclusive, the potency comes from a doubtful curve fit. Potency is the fitted concentration of half-maximal effect."}
{"assay": "A quantitative high throughput screen for small molecules that induce DNA re-replication in SW480 colon adenocarcinoma cells; note: nearly all actives have a fitted effect of over 55% in size; for re-replication activation: % of control where 0% means no effect.", "conditions": "Hoechst DNA content imaging, 48 h; re-replication activation: at 46.1 µM (top of the series) unless noted", "outline": "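Treated cells incubate 48 hr (37 C, 5% CO2), are stained 40 min with Hoechst, and nuclear fluorescence is enumerated; a rise in nuclei with high DNA signal marks re-replication.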"}
{"smiles": "COc1ccc(CC2c3cc(OC)c(OC)cc3CC[N+]2(C)CCC(=O)OCCCCCOC(=O)CC[N+]2(C)CCc3cc(OC)c(OC)cc3C2Cc2ccc(OC)c(OC)c2)cc1OC", "note": "(centres undefined)", "Potency": "inconclusive: 20.6 µM [activator, single point]"}
{"smiles": "COc1ccc(N(C)S(=O)(=O)c2ccc3c(c2)NC(=O)CO3)c(OC)c1", "re-replication activation": "inactive: -31.8%"}
{"smiles": "COc1ccc(C)cc1NC(=O)c1cc2c(=O)n3ccccc3nc2n1C", "Potency": "inconclusive: 6.51 µM [activator, single point]"}
{"smiles": "CCCCOc1ccc(C(=O)NNC(=O)c2cnccn2)cc1OC", "Potency": "inconclusive: 23.1 µM [activator, single point]"}
{"smiles": "O=C(Nc1ccc(C(=O)N2CCOCC2)cc1)c1cc(-c2cccnc2)nc2ccc(Br)cc12", "Potency": "inconclusive: 23.1 µM [activator, single point]"}
{"smiles": "CCOC(=O)c1c(-c2ccccc2)csc1NC(=O)c1cccc(N2C(=O)CCC2=O)c1", "Potency": "inconclusive: 20.6 µM [activator, single point]"}
{"smiles": "O=[N+]([O-])c1cc(S(=O)(=O)NCCN2CCOCC2)ccc1Sc1nnnn1-c1ccccc1", "Potency": "active: 14.6 µM"}
{"smiles": "CCCCC(=O)NC(c1ccco1)c1cc(Cl)c2cccnc2c1O", "note": "(centres undefined)", "Potency": "inconclusive: 5.8 µM [activator, full curve]"}
{"smiles": "CC(C)(C)C(=O)NC(=S)Nc1ccc(S(=O)(=O)Nc2nccs2)cc1", "Potency": "inconclusive: 7.31 µM [activator, partial curve, poor fit]"}
{"smiles": "O=C1CCCc2oc3c(c21)CCCC3", "Potency": "inconclusive: 0.103 µM [activator, full curve, poor fit]"}
{"smiles": "COc1cc(CN(C(=S)NCC(=O)NC2CCCC2)C2CCCC2)cc(OC)c1OC", "Potency": "inconclusive: 0.164 µM [activator, full curve, poor fit]"}
{"smiles": "CC(C)(C)c1cc(Br)c(O)c(N=Nc2ccc(S(=O)(=O)N3CCOCC3)cc2)c1", "Potency": "inconclusive: 29.1 µM [activator, partial curve, poor fit]"}
{"smiles": "CS(=O)(=O)NCCSCc1c(F)cccc1Cl", "re-replication activation": "inactive: -12.6%"}
{"smiles": "COc1ccc(C(=O)N2c3ccccc3C=CC2C#N)cc1", "note": "(centres undefined)", "Potency": "inconclusive: 29.1 µM [activator, single point]"}
{"smiles": "Cc1nn(-c2ccccc2)c2sc(C(=O)c3c(N)n(C)c(=O)n(C)c3=O)cc12", "Potency": "inconclusive: 29.1 µM [activator, single point]"}
{"smiles": "CCOc1cc(C(=O)N/N=C/c2ccsc2)cc(OCC)c1OCC", "Potency": "inconclusive: 23.1 µM [activator, single point]"}
{"smiles": "Oc1ccc(NCc2ccccc2OCc2ccccc2)cc1", "Potency": "active: 14.6 µM"}
{"smiles": "CC1CCN(S(=O)(=O)c2cc(C(=O)N3CCN(c4ncccn4)CC3)ccc2Br)CC1", "re-replication activation": "inactive: -0.156%"}
{"smiles": "Cc1ccc(Nc2cc(C)nc(NCc3ccccc3)n2)cc1", "Potency": "inconclusive: 29.1 µM [activator, single point]"}
{"smiles": "CC(C)(C)C(=O)NC(=S)NNC(=O)c1ccc(Cl)cc1Cl", "Potency": "inconclusive: 0.731 µM [activator, partial curve, poor fit]"}
{"smiles": "O=S(=O)(c1cccc2ccccc12)N1CCSC1", "re-replication activation": "inactive: -5.29%"}
{"smiles": "CSc1ccc(/C=N/Nc2nc(C)cc(=O)[nH]2)cc1", "re-replication activation": "inactive: -2.96%"}
{"smiles": "COc1ccc(-c2n[nH]c(C)c2-c2cnn(-c3ccccc3)c2)c(O)c1C", "Potency": "active: 14.6 µM"}
{"smiles": "O=C(COC(=O)COc1cccc(C(F)(F)F)c1)NC1CCCC1", "re-replication activation": "inactive: -3.07%"}
{"smiles": "Cc1cc(OC(=O)c2cc(Br)ccc2Cl)c([N+](=O)[O-])c(=O)[nH]1", "re-replication activation": "inactive: -9.96%"}
{"smiles": "c1cn2c(NC3CCCCC3)c(-c3ccc(SC4CCCCC4)cc3)nc2cn1", "re-replication activation": "inactive: -1.47%"}
{"smiles": "CCOC(=O)c1c(CSc2ccccc2)n(C)c2cc(Br)c(O)c(CN(C)C)c12", "Potency": "inconclusive: 18.4 µM [activator, single point]"}
{"smiles": "O=C(/C=C/Nc1ccccc1)c1ccccc1", "re-replication activation": "inactive: 0.693%"}
{"smiles": "Cc1ccccc1N1CCN(C(=O)c2cccnc2)CC1", "re-replication activation": "inactive: 16.6%"}
{"smiles": "COc1ccc(/C=N/NC(=O)c2ccc(NS(=O)(=O)c3cccs3)cc2)cc1", "Potency": "inconclusive: 5.17 µM [activator, partial curve, poor fit]"}
{"smiles": "COc1ccccc1CCNC(=O)C(=O)NCC1OCCN1S(=O)(=O)c1ccc(OC)c(OC)c1", "note": "(centres undefined)", "Potency": "inconclusive: 32.6 µM [activator, partial curve, poor fit]"}
{"smiles": "CCN(CC)CCNC(=O)c1cc2c(-c3cccc(OC)c3)nn(C)c2s1", "Potency": "inconclusive: 16.4 µM [activator, single point]"}
{"smiles": "CSCCC1NC(=O)N(CC(=O)Nc2ccc(Br)cc2Br)C1=O", "note": "(centres undefined)", "re-replication activation": "inactive: -24.3%"}
{"smiles": "Cc1cccc(C)c1NC(=O)CCCSc1nnc(-c2ccc(Cl)cc2)n1-c1ccccc1", "Potency": "inconclusive: 23.1 µM [activator, partial curve, poor fit]"}
{"smiles": "CCOC(=O)NC(=O)C(/C=N/c1sccc1C(=O)OC)=C(\\C)O", "Potency": "inconclusive: 8.2 µM [activator, partial curve, poor fit]"}
{"smiles": "CCOc1ccc(-c2cc(C(=O)N3CCN(c4ccccn4)CC3)c3ccccc3n2)cc1", "Potency": "inconclusive: 18.4 µM [activator, single point]"}
{"smiles": "COc1ccc(C2Nc3ccccc3C(=O)N2Cc2ccco2)cc1COc1ccc(NC(C)=O)cc1", "note": "(centres undefined)", "re-replication activation": "inactive: -0.117%"}
{"smiles": "COc1ccc(NC(=O)CSc2nnc(C)n2C2CCCCC2)cc1", "Potency": "inconclusive: 2.59 µM [activator, partial curve, poor fit]"}
{"smiles": "Cn1c(O)c(/C=N/NC(=O)c2cc3ccccc3cc2O)c2ccccc21", "Potency": "inconclusive: 29.1 µM [activator, single point]"}
{"smiles": "O=C(CSc1nnc(NC(=O)C2CC2)s1)NCc1ccccc1", "re-replication activation": "inactive: -0.67%"}
{"smiles": "O=C(CCC1COc2ccccc2O1)Nc1ccc(Cl)cn1", "note": "(centres undefined)", "Potency": "inconclusive: 16.4 µM [activator, single point]"}
{"smiles": "CCOc1cc(NC(=S)NCC2CCCO2)c(OCC)cc1NC(=O)c1cccc(C)c1", "note": "(centres undefined)", "re-replication activation": "inactive: 19.1%"}
{"smiles": "CC(C)CCNS(=O)(=O)c1cc2c3c(c1)CCN3C(=O)CC2", "re-replication activation": "inactive: -2.4%"}
{"smiles": "C/C(=N\\NC(=O)c1ccncc1)c1cccnc1", "Potency": "inconclusive: 29.1 µM [activator, single point]"}
{"smiles": "Cc1nonc1CN(C)C(=O)c1ccc(OC2CCN(Cc3ccccn3)CC2)cc1", "Potency": "inconclusive: 0.103 µM [activator, partial curve, poor fit]"}
{"smiles": "CCOC(=O)[C@H]1[C@H]2COc3ccc(Br)cc3[C@H]2N2C(=O)CN(Cc3ccc(C)cc3)C(=O)[C@@]12C", "Potency": "inconclusive: 0.116 µM [activator, full curve, poor fit]"}
{"smiles": "CC(=O)N1CCN(CC(O)COc2ccc(Br)cc2)CC1", "note": "(centres undefined)", "re-replication activation": "inactive: -1.96%"}
{"smiles": "O=c1c2sccc2nc(SCc2cc(=O)n3cc(Br)ccc3n2)n1Cc1ccccn1", "re-replication activation": "inactive: -2.78%"}
{"smiles": "O=C1C=C(c2cccc3c2sc2ccccc23)C[C@@H](c2ccc(Cl)cc2)C1", "Potency": "inconclusive: 4.11 µM [activator, full curve, poor fit]"}
{"smiles": "CCOC(=O)c1c(C)c(C(=O)Nc2ccc3c(c2)OCCO3)c(C)n1CC", "Potency": "inconclusive: 17.8 µM [activator, single point]"}
{"smiles": "CC1CN=C(N(Cc2ccccc2)C(=O)Nc2ccccc2)S1", "note": "(centres undefined)", "Potency": "inconclusive: 29.1 µM [activator, single point]"}
{"smiles": "COc1cc(NS(=O)(=O)c2ccc(Br)cc2)c(OC)cc1NC(=O)c1ccco1", "re-replication activation": "inactive: 5.71%"}
{"smiles": "Cc1nc(Nc2ncc(C(=O)Nc3c(C)cccc3Cl)s2)cc(N2CCN(CCO)CC2)n1", "Potency": "active: 16.8 µM"}
{"smiles": "CC1CCC2(CC1)NC(=O)N(NC(=O)c1cccc(N(C)C)c1)C2=O", "note": "(centres undefined)", "re-replication activation": "inactive: -8.14%"}
{"smiles": "Nc1nc(CSC(=S)N2CCN(c3ccccc3)CC2)nc(Nc2ccccc2)n1", "re-replication activation": "inactive: 132%"}
{"smiles": "CC(C)OC(=O)c1ccc(NCc2cc(O)ccc2O)cc1", "Potency": "inconclusive: 18.4 µM [activator, single point]"}
{"smiles": "CCc1ccccc1S(=O)(=O)Cc1ccc(C(=O)N2CCN(c3ccccc3OC)CC2)o1", "Potency": "inconclusive: 32.6 µM [activator, partial curve, poor fit]"}
{"smiles": "CC(=O)Nc1ccc(NC(=O)CN2C(=O)COc3ccc(S(=O)(=O)N4CCCCC4)cc32)cc1", "Potency": "inconclusive: 2.59 µM [activator, full curve, poor fit]"}
{"smiles": "Cn1c(=O)c2[nH]c(CSCc3ccccc3)nc2n(C)c1=O", "re-replication activation": "inactive: -2.06%"}
{"smiles": "O=C(CSc1ccccc1)Nc1nnc(/C=C/c2ccccc2)s1", "Potency": "inconclusive: 14.1 µM [activator, single point]"}
{"smiles": "O=C(OCc1ccccc1)N1CCC2CC1c1cc(NCCc3ccccc3)ccc12", "note": "(centres undefined)", "Potency": "inconclusive: 0.461 µM [activator, full curve, poor fit]"}
{"smiles": "Nn1c(SCc2ccc(F)cc2)nnc1-c1ccccn1", "re-replication activation": "inactive: -41%"}
{"smiles": "CCC(C)NCCCCOc1ccc(Cl)cc1C", "note": "(centres undefined)", "Potency": "inconclusive: 20.6 µM [activator, partial curve, poor fit]"}
{"smiles": "CCc1ccc(-c2nc(CN3CCC(C(=O)NCCN(CC)c4ccccc4)CC3)c(C)o2)cc1", "Potency": "inconclusive: 16.4 µM [activator, single point]"}
{"smiles": "CCN1CCN(C(=O)c2nn(-c3ccc(OC)cc3)c(=O)c3c2c2ccccc2n3C)CC1", "Potency": "inconclusive: 29.1 µM [activator, single point]"}
{"smiles": "CCCCNC(=O)Nc1nc2ccc(CC)cc2s1", "Potency": "inconclusive: 23.1 µM [activator, single point]"}
{"smiles": "Cc1cc(C)c2cc(C)c(SCC(=O)NCc3ccco3)nc2c1", "Potency": "inconclusive: 16.4 µM [activator, single point]"}
{"smiles": "O=C(Nc1ccc(-n2cnnn2)cc1)c1cn2ccccc2n1", "Potency": "inconclusive: 0.651 µM [activator, partial curve, poor fit]"}
{"smiles": "O=C1CC(N2CCN(c3ccccc3F)CC2)C(=O)N1c1ccc(F)cc1", "note": "(centres undefined)", "Potency": "inconclusive: 0.116 µM [activator, full curve, poor fit]"}
